The record followed here is patent US20050065327A1.

These are yes or no findings as the source states them, for the method shown. A result given as binding can be weak or reduced; the word gives no strength.

The assay has as its target human IL-13 variant (Q130R) with carboxyl terminus affinity tag (baculovirus expressed) (human). The assay is described as follows: BIAcore, IL-13 amine-coupled to CM5 chip (~200 Ru), scFv at ~350, 175 and 88 nM.

B1: BAK278D6 scFv (scFv, V domains shown)
VH: EVQLVQSGAEVKKPGASVKVSCKASGYTFRNYGLSWVRQAPGQGLEWMGWISANNGDTNYGQEFQGRITMTTETSTNTAHMELRSLRSDDTAVYYCVRDSSSNWARWFFDLWGKGTMVTVSS
VL: SYVLTQPPSVSVAPGQTARIPCGGNNIGSKLVHWYQQKPGQAPVLVVYDDGDRPSGIPERFSGSNSGNTATLTISRIDAGDEADYYCQVWDTGSDPVVFGGGTKLTVL
With B1, the binding result is recorded as “binds”.
